From patent publication US6924099B1, “Biomarkers and assays for carcinogenesis” (G.D. Searle & Co., priority 1999, dated 2005)
For at least one compound, name, drawing or mass did not settle the structure.

Tested on: rat liver mRNA
Assay: RT-PCR of mRNAs for three phenobarbital-induced genes
Conditions: oral gavage 200 mg/kg, 88 days or 5 days
Protocol: Specifically, rats were treated by oral gavage for 88 days in the 13 week experiment, or for 5 days with 200 mg/kg phenobarbital or control vehicle.

CCC1(c2ccccc2)C(=O)NC(=O)NC1=O [phenobarbital]
Average expression level of P1450 3A1 mRNA as compared to control rats: substantial induction | Average expression level of UDP-glucuronosyl transferase mRNA as compared to control rats: substantial induction
